This note sets out measurements from patent US20080280820 (published 2008).

Positions of bridges follow the written chain, without caps; N, C: chain ends. Non-standard residues stand in square brackets, D forms with d. *: point of attachment. Palmitoyl = CCCCCCCCCCCCCCCC(=O)*; Hyp = O=C(O)[C@@H]1C[C@@H](O)CN1; Nle = CCCC[C@H](N)C(=O)O

Data set [1] in a line: general procedure: Fmoc solid-phase peptide synthesis; Rink amide polystyrene; HBTU/DIPEA with HOBt/HOAt (1:1). As to conditions: whole synthesis, scale 3.25 mmol.
Data set [2] is described as follows: general procedure: Fmoc solid-phase peptide synthesis; Rink amide polystyrene resin; HBTU/DIPEA with HOBt/HOAt (1:1). As to conditions: whole synthesis, UV 214 nm, scale of the general procedure 3.25 mmol.

“Palmitoyl-GT[dQ]HT[Nle]E[Hyp][dF]RWK-NH2 (lactam 7-12)”: in data set [1], the isolated mass was determined as 617 mg and the isolated yield was found to be 11% yield. Further, the “final HPLC purity” value in data set [2] was 100% purity.
